# Data as given in the supplement of paper PMC6331611.
# ± gives the standard deviation of the averaged measurements. The full ranking holds about 1,600 compounds; the median of “normalized intracellular growth (luminescence, IQM-normalized) in RAW264.7 macrophages” is about 1, and the lowest 2% start at about 0.43. This is one part of the list.
# Tested on: Salmonella enterica serovar Typhimurium SL1344
# Assay: normalized intracellular growth (luminescence, IQM-normalized) in RAW264.7 macrophages (fraction of plate interquartile mean); higher = more bacterial growth (less inhibition)
# Settings: 10 µM
Compound,normalized intracellular growth (time point: T3 (3 h)),normalized intracellular growth (time point: Tfinal (~6 h))
CC(=O)Oc1cc(C(C)C)c(OCCN(C)C)cc1C,1.03 ± 0.017,1.09 ± 0.015
O=C(O)c1cc(O)c2c(c1)[C@H]([C@H]1c3cc(C(=O)O)cc(O)c3C(=O)c3c(O[C@@H]4O[C@H](CO)[C@@H](O)[C@H](O)[C@H]4O)cccc31)c1cccc(O[C@@H]3O[C@H](CO)[C@@H](O)[C@H](O)[C@H]3O)c1C2=O,0.957 ± 0.08,0.961 ± 0.026
CC(c1cc2ccccc2s1)N(O)C(N)=O (stereo unspecified),1.03 ± 0.036,1.16 ± 0.35
CN(C)CCc1c[nH]c2ccc(C[C@H]3COC(=O)N3)cc12,1.02 ± 0.045,0.955 ± 0.058
CN(C)CCC=C1c2ccccc2C=Cc2ccccc21,0.963 ± 0.028,1.13 ± 0.034
NS(=O)(=O)c1cc2c(cc1Cl)NCNS2(=O)=O,0.982 ± 0.02,1.08 ± 0.012
Nc1ccc(C(=O)Oc2ccccc2)c(O)c1,1.05 ± 0.074,0.898 ± 0.21
CNNCc1ccc(C(=O)NC(C)C)cc1,1.01 ± 0.044,0.854 ± 0.17
O=c1[nH]c(=O)n([C@H]2C[C@H](O)[C@@H](CO)O2)cc1F,0.699 ± 0.043,0.209 ± 0.03
Oc1ccc(O)cc1,0.977 ± 0.093,1.09 ± 0.2
COc1cc2nc(N3CCN(C(=O)C4CCCO4)CC3)nc(N)c2cc1OC (stereo unspecified),1.1 ± 0.081,1.12 ± 0.12
CC1CCC(NC(=O)N(CCCl)N=O)CC1 (stereo unspecified),0.999 ± 0.016,0.899 ± 0.28
Nc1ccc(S(=O)(=O)Nc2ccc(Cl)nn2)cc1,0.949 ± 0.026,0.834 ± 0.022
Cc1cc2nc3ccc(N(C)C)cc3[s+]c2cc1N,1.43 ± 0.054,1.55 ± 0.073
CN(C)CCCOc1nn(Cc2ccccc2)c2ccccc12,0.956 ± 0.38,1.47 ± 0.074
S=C=Nc1ccc(N=C=S)cc1,1.04 ± 0.035,1.01 ± 0.11
OC[C@@H](O)[C@@H](O)[C@H](O)[C@@H](O)CO,0.995 ± 0.034,0.805 ± 0.19
C#C[C@]1(O)CC[C@H]2[C@@H]3[C@H](C)CC4=C(CCC(=O)C4)[C@H]3CC[C@@]21C,1.07 ± 0.016,1.19 ± 0.056
COc1cc(C(=O)N2CCOCC2)cc(OC)c1OC,1.071 ± 0.0099,1.12 ± 0.24
CC(=O)OCC(=O)[C@@]1(O)CC[C@H]2[C@@H]3CCC4=CC(=O)CC[C@]4(C)[C@H]3C(=O)C[C@@]21C,0.964 ± 0.041,0.941 ± 0.037
CC(=O)OCC(=O)[C@@]1(O)CC[C@H]2[C@@H]3CCC4=CC(=O)C=C[C@]4(C)[C@@]3(F)[C@@H](O)C[C@@]21C,1.01 ± 0.05,0.768 ± 0.15
CCCCC(=O)O[C@]1(C(=O)CO)[C@@H](C)C[C@H]2[C@@H]3CCC4=CC(=O)C=C[C@]4(C)[C@@]3(F)[C@@H](O)C[C@@]21C,0.7 ± 0.11,0.98 ± 0.054
O=C(O)Cc1ccccc1Nc1c(Cl)cccc1Cl,1.02 ± 0.032,0.963 ± 0.038
C[C@@H](c1ncncc1F)[C@](O)(Cn1cncn1)c1ccc(F)cc1F,1.01 ± 0.065,0.833 ± 0.3

# As a short view, some entries already given:
Compound,normalized intracellular growth (time point: T3 (3 h)),normalized intracellular growth (time point: Tfinal (~6 h))
CNNCc1ccc(C(=O)NC(C)C)cc1,1.01 ± 0.044,0.854 ± 0.17
O=c1[nH]c(=O)n([C@H]2C[C@H](O)[C@@H](CO)O2)cc1F,0.699 ± 0.043,0.209 ± 0.03
Oc1ccc(O)cc1,0.977 ± 0.093,1.09 ± 0.2
COc1cc2nc(N3CCN(C(=O)C4CCCO4)CC3)nc(N)c2cc1OC (stereo unspecified),1.1 ± 0.081,1.12 ± 0.12
CC1CCC(NC(=O)N(CCCl)N=O)CC1 (stereo unspecified),0.999 ± 0.016,0.899 ± 0.28

# (more compounds)

Compound,normalized intracellular growth (time point: T3 (3 h)),normalized intracellular growth (time point: Tfinal (~6 h))
C[C@@H]1CC(=O)NN=C1c1ccc(NN=C(C#N)C#N)cc1,1.14 ± 0.042,0.946 ± 0.27
N=c1ccn2c(n1)O[C@H]1[C@H](O)[C@@H](CO)O[C@H]12,1 ± 0.029,1.16 ± 0.016
CC(C)Cc1ccc([C@H](C)C(=O)O)cc1,0.977 ± 0.067,1.24 ± 0.13
CS(=O)(=O)c1ccc([C@@H](O)[C@@H](CO)NC(=O)C(Cl)Cl)cc1,0.925 ± 0.07,0.767 ± 0.047
O=c1[nH]cc(F)c(=O)[nH]1,0.731 ± 0.089,0.153 ± 0.006
C[C@]12C=CC(=O)C=C1CC[C@@H]1[C@@H]2[C@@H](O)C[C@@]2(C)[C@H]1CC[C@]2(O)C(=O)CO,0.8 ± 0.15,0.888 ± 0.078
O=C1C(CC[S+]([O-])c2ccccc2)C(=O)N(c2ccccc2)N1c1ccccc1 (stereo unspecified),1.14 ± 0.13,1.15 ± 0.036
NS(=O)(=O)c1cc2c(cc1Cl)N=C(CSCc1ccccc1)NS2(=O)=O,1.01 ± 0.057,1.12 ± 0.1
CC(=O)OC/C=C(C)/C=C/C=C(C)/C=C/C1=C(C)CCCC1(C)C,1.13 ± 0.075,1.08 ± 0.042
OC[C@@H](O)[C@@H](O)CO,0.947 ± 0.1,1.08 ± 0.11
CC(C)[C@@H]1CC[C@@H](C)C[C@H]1O,0.967 ± 0.013,0.961 ± 0.045
CO[C@@]1(NC(=O)C(C(=O)O)c2ccc(O)cc2)C(=O)N2C(C(=O)O)=C(CSc3nnnn3C)CO[C@@H]21 (stereo partly specified),0.996 ± 0.041,1.14 ± 0.23
O=C1CC[C@@H](C(=O)O)N1,1.03 ± 0.091,1.1 ± 0.02
C#C[C@]1(O)CC[C@H]2[C@@H]3CCC4=CC(=O)CC[C@@H]4[C@H]3CC[C@@]21C,1.01 ± 0.072,1.04 ± 0.13
C#C[C@]1(OC(C)=O)CC[C@H]2[C@@H]3CCC4=C[C@@H](OC(C)=O)CC[C@@H]4[C@H]3CC[C@@]21C,1.05 ± 0.043,1.07 ± 0.16
Nc1ccc(S(=O)(=O)Nc2ncccn2)cc1,1.07 ± 0.011,1.06 ± 0.059
Clc1ccccc1CN1CCc2sccc2C1,1 ± 0.013,1.13 ± 0.15
CCC(=O)O[C@H](CC(=O)O)C[N+](C)(C)C,1.06 ± 0.052,1 ± 0.028
CO[C@@]1(NC(=O)C2SC(=C(C(N)=O)C(=O)O)S2)C(=O)N2C(C(=O)O)=C(CSc3nnnn3C)CS[C@@H]21 (stereo partly specified),1.02 ± 0.0062,1.05 ± 0.14
CN(C)CCCN1c2ccccc2CCc2ccc(Cl)cc21,0.965 ± 0.051,0.944 ± 0.039
Cc1cc(C(C)(C)CC(C)(C)C)ccc1OCCOCC[N+](C)(C)Cc1ccccc1,1.12 ± 0.014,0.563 ± 0.25
Cc1cc(NC(=O)C2=C(O)c3ccccc3S(=O)(=O)N2C)no1,0.971 ± 0.038,1.06 ± 0.17
COC(=O)C1=C(C)NC(C)=C(C(=O)OC)C1c1ccccc1[N+](=O)[O-],1.02 ± 0.045,1 ± 0.06
C#C[C@]1(O)CC[C@H]2[C@@H]3CCc4cc(OC)ccc4[C@H]3CC[C@@]21C,1.02 ± 0.064,1.18 ± 0.087

Compound,normalized intracellular growth (time point: T3 (3 h)),normalized intracellular growth (time point: Tfinal (~6 h))
CC(C)NCC(O)c1ccc(NS(C)(=O)=O)cc1 (stereo unspecified),0.981 ± 0.028,0.998 ± 0.036
CC(=O)N1CCN(c2ccc(OCC3COC(Cn4ccnc4)(c4ccc(Cl)cc4Cl)O3)cc2)CC1 (stereo unspecified),1.05 ± 0.021,1.09 ± 0.062
Cc1nc(C)c(Cl)c(O)c1Cl,0.942 ± 0.035,1.16 ± 0.1
CCN(CC)CCCC(C)Nc1c2ccc(Cl)cc2nc2ccc(OC)cc12 (stereo unspecified),0.987 ± 0.061,1.07 ± 0.06
O=C(O)P(=O)(O)O,0.973 ± 0.067,1.04 ± 0.1
CCCCCCCCCCCCCCCC[N+](C)(C)CCN(Cc1ccc(OC)cc1)c1ncccn1,1.01 ± 0.098,0.784 ± 0.13
NS(=O)(=O)c1ccc(C(=O)O)cc1,1.006 ± 0.0098,0.964 ± 0.076
CCOc1ccccc1C(N)=O,1 ± 0.03,1.05 ± 0.1
CO[C@H]1C[C@@H]2CC[C@@H](C)[C@@](O)(O2)C(=O)C(=O)N2CCCC[C@H]2C(=O)O[C@H]([C@H](C)C[C@@H]2CC[C@@H](O)[C@H](OC)C2)CC(=O)[C@H](C)/C=C(\C)[C@@H](O)[C@@H](OC)C(=O)[C@H](C)C[C@H](C)/C=C/C=C/C=C/1C,1.01 ± 0.052,1.18 ± 0.48
CCN(CC)CCNC(=O)c1ccc(NC(C)=O)cc1,1.03 ± 0.065,1 ± 0.12
CN1C(=O)CC(C)(c2ccccc2)C1=O (stereo unspecified),0.972 ± 0.072,1.02 ± 0.067
CNC[C@H](O)c1cccc(O)c1,0.759 ± 0.11,1.04 ± 0.07
CC(C)(CO)[C@@H](O)C(=O)NCCCO,1.06 ± 0.026,0.972 ± 0.058
CCOC(=O)[C@H](CCc1ccccc1)N[C@@H](C)C(=O)N1[C@H](C(=O)O)C[C@H]2CCCC[C@@H]21,1.09 ± 0.025,1.17 ± 0.26
CNC(=C[N+](=O)[O-])NCCSCc1ccc(CN(C)C)o1,1.13 ± 0.029,1.16 ± 0.23
COC(=O)[C@H]1[C@H]2C[C@@H]3c4[nH]c5cc(OC)ccc5c4CCN3C[C@H]2C[C@@H](OC(=O)c2cc(OC)c(OC)c(OC)c2)[C@@H]1OC,0.967 ± 0.039,0.924 ± 0.089
N[C@H](Cc1ccccc1)C(=O)O,1.15 ± 0.065,1.05 ± 0.087
CCCc1nc(C)c2c(O)nc(-c3cc(S(=O)(=O)N4CCN(CC)CC4)ccc3OCC)nn12,0.997 ± 0.027,0.899 ± 0.1
Cc1ncc([N+](=O)[O-])n1C,0.936 ± 0.053,0.98 ± 0.1
c1ccc2c(c1)CCCC2C1=NCCN1 (stereo unspecified),1 ± 0.049,0.889 ± 0.055
C[C@@H](O)[C@H]1C(=O)N2C(C(=O)O)=C(SCCNC=N)C[C@H]12,1.04 ± 0.055,1.03 ± 0.09
CCCCCN(C)CCC(O)(P(=O)(O)O)P(=O)(O)O,0.886 ± 0.014,0.0897 ± 0.012
C[Se]CC[C@H](N)C(=O)O,0.991 ± 0.048,1.19 ± 0.051
C1N2CN3CN1CN(C2)C3,0.984 ± 0.028,1.08 ± 0.047

Compound,normalized intracellular growth (time point: T3 (3 h)),normalized intracellular growth (time point: Tfinal (~6 h))
CC(C)c1nc(N(C)S(C)(=O)=O)nc(-c2ccc(F)cc2)c1/C=C/[C@@H](O)C[C@@H](O)CC(=O)O,0.938 ± 0.029,0.9595 ± 0.0089
Nc1ccc(S(=O)(=O)NC(=O)c2ccccc2)cc1,1.13 ± 0.037,1.08 ± 0.089
C[N+](C)(C)CCOP(=O)(O)OP(=O)([O-])OC[C@H]1O[C@@H](n2ccc(N)nc2=O)[C@H](O)[C@@H]1O,0.972 ± 0.082,1 ± 0.14
Cc1cccc(C)c1NC(=O)c1ccccc1C(=O)O,1.05 ± 0.04,0.872 ± 0.24
FCOC(C(F)(F)F)C(F)(F)F,1.01 ± 0.052,0.806 ± 0.18
CS(=O)(=O)c1ccc([C@@H](O)[C@@H](CF)NC(=O)C(Cl)Cl)cc1,1.27 ± 0.096,0.22 ± 0.17
CCN(CC)CCCC(C)Nc1ccnc2cc(Cl)ccc12 (stereo unspecified),1 ± 0.025,1.1 ± 0.033
CC(C(=O)O)c1cccc(Oc2ccccc2)c1 (stereo unspecified),0.958 ± 0.04,0.979 ± 0.052
O=C(O)CN(CCN(CC(=O)O)CC(=O)O)CC(=O)O.[Na+].[Na+].[Na+],1.03 ± 0.021,1.54 ± 0.093
O=C1OC(c2ccc(O)cc2)(c2ccc(O)cc2)c2ccccc21,1.01 ± 0.065,0.809 ± 0.14
CCCc1ncc(C[n+]2ccccc2C)c(N)n1,0.981 ± 0.015,0.967 ± 0.048
CN(C)c1cnccn1,0.967 ± 0.046,0.904 ± 0.32
C=CCc1ccc(O)c(OC)c1,0.893 ± 0.035,0.976 ± 0.12
OC[C@@H](O)[C@@H](O)[C@H](O)[C@H](O)CO,1.08 ± 0.061,0.975 ± 0.39
CC(=O)OCC(=O)NCCCOc1cccc(CN2CCCCC2)c1,1.02 ± 0.032,1.24 ± 0.077
CCn1cc(C(=O)O)c(=O)c2cc(F)c(N3CCNCC3)nc21,0.916 ± 0.07,0.245 ± 0.036
c1ccc(CC2=NCCN2)cc1,1 ± 0.037,1.07 ± 0.033
OCCN1CCN(CCCN2c3ccccc3Sc3ccc(C(F)(F)F)cc32)CC1,1.22 ± 0.062,1.17 ± 0.047
CC(C)(Oc1ccc(CCNC(=O)c2ccc(Cl)cc2)cc1)C(=O)O,0.989 ± 0.017,1.14 ± 0.044
O=C(O)CCc1nc(-c2ccccc2)c(-c2ccccc2)o1,1.04 ± 0.12,1.17 ± 0.13
Clc1ccc2c(c1)C(N1CCNCC1)=Nc1ccccc1O2,1.03 ± 0.067,1.14 ± 0.082
